Drawing on PubChem BioAssay AID248 (DTP/NCI, 2004), this text covers survivor count and T/C for 34 compounds.

The structures appear in SMILES notation. The list shows only some results of the screen, not a fair sample: it is rich in T/C values a quarter to a half above the control, in often repeated tests (any T/C) and in doses without a T/C. Other doses and runs of a compound stand elsewhere. T/C: endpoint of the treated group in % of that of the vehicle group. Some entries give survivors of the animals treated and no T/C: the source files T/C as zero there, which appears to mark a toxic dose or a test without result, not a measured value. Some survivor counts are full or nearly so, which does not show that the dose was tolerated: survival well below the control is almost never listed, so the zero probably covers shortened survival too. Counts of survivors are from the toxicity check (mostly the fifth day) where no day follows; animals may have died later. Schedule codes are those of the source, taken here to give the interval after Q, in days (D) or hours (H), and the number of doses after X. Some schedule codes hold Z or #, which are not explained here. Some structures stand for samples that the source files as different forms (salt, stereo form or complex); doses refer to the form tested. Some entries hold several experiments; the values are given in rising order. Where survival is the endpoint, the PubChem record calls one and a half times the control and up active, and a quarter to a half above the control has no call in these data; cut-offs in other NCI protocols can differ. Some T/C values carry the count of animals alive at the toxicity check (mostly the fifth day); where none is given, no animal had died by that day.

This test deals with L1210 leukemia ip in BDF1 mice, survival T/C. The test can be described thus: NCI In Vivo Anticancer Drug Screen. Data for tumor model L1210 Leukemia (intraperitoneal) in B6D2F1 (BDF1) mice. The settings on record: higher T/C = longer survival.
[1] abbreviates: T/C endpoint: mean survival time, dose: 100.0 mg/kg/injection, schedule: Q01DX009 (ip), vehicle: saline with Tween-80.
[2] abbreviates: T/C endpoint: mean survival time, dose: 200.0 mg/kg/injection, schedule: Q01DX009 (ip), vehicle: saline with Tween-80.
[3] abbreviates: T/C endpoint: mean survival time, dose: 400.0 mg/kg/injection, schedule: Q04DX003 (ip), vehicle: saline with Tween-80.
Setting [4] is: T/C endpoint: mean survival time, dose: 400.0 mg/kg/injection, schedule: Q01DX001 (ip), vehicle: saline with Tween-80.
Where [5] appears, read: T/C endpoint: mean survival time, dose: 100.0 mg/kg/injection, schedule: Q01DX009 (ip), vehicle: Klucel (hydroxypropylcellulose) (HPC).
Setting [6] is: T/C endpoint: mean survival time, dose: 200.0 mg/kg/injection, schedule: Q01DX009 (ip), vehicle: Klucel (hydroxypropylcellulose) (HPC).
Where [7] appears, read: T/C endpoint: mean survival time, dose: 400.0 mg/kg/injection, schedule: Q01DX001 (ip), vehicle: saline.
The mark [8] stands for this setting: T/C endpoint: mean survival time, dose: 400.0 mg/kg/injection, schedule: Q01DX001 (ip), vehicle: carboxymethylcellulose (CMC).
The mark [9] stands for this setting: T/C endpoint: mean survival time, dose: 150.0 mg/kg/injection, schedule: Q01DX001 (ip), vehicle: saline.
[10] abbreviates: T/C endpoint: mean survival time, dose: 300.0 mg/kg/injection, schedule: Q01DX001 (ip), vehicle: saline.
The mark [11] stands for this setting: T/C endpoint: mean survival time, dose: 400.0 mg/kg/injection, schedule: Q04DX003 (ip), vehicle: Klucel (hydroxypropylcellulose) (HPC).
Where [12] appears, read: T/C endpoint: mean survival time, dose: 200.0 mg/kg/injection, schedule: Q04DX003 (ip), vehicle: saline with Tween-80.

Take `CCOC(=O)C(Cl)C(C)(O)c1ccccc1` (centres undefined): where the note is “T/C endpoint: mean survival time, dose: 400.0 mg/kg/injection, schedule: Q04DX002 (ip), vehicle: saline with Tween-80”, the survivor count is 3 of 3.

`c1ccc2c(c1)ccc1c[s+]ccc12`: for the setting “T/C endpoint: mean survival time, dose: 400.0 mg/kg/injection, schedule: Q04DX003 (ip), vehicle: acetone”, the survivor count was 1 of 6.

Regarding `O=Cc1cccc(CC(O)(C(F)(F)F)C(F)(F)F)n1`, the survivor count by setting is: under setting [1], 3 of 6; under setting [2], 3 of 6; under setting [3], 0 of 6.

In the case of `OCC1C2CCC(C2)C1CO` (centres undefined), the survivor count under setting [1] is recorded as 2 of 6 and the survivor count under setting [2] is on record as 0 of 6.

For `NNc1nncc(=O)[nH]1`, the survivor count under setting [4] was 2 of 6.

On to `Clc1c(C(Cl)(Cl)Cl)nc2ccccc2c1Br`, for which the survivor count is 3 of 3 (T/C endpoint: mean survival time, dose: 50.0 mg/kg/injection, schedule: Q01DX009 (ip), vehicle: Klucel (hydroxypropylcellulose) (HPC)); 1 of 3 under setting [5]; 1 of 3 under setting [6].

Turning to `O=C(Nc1ccccc1F)Sc1c(Cl)c(Cl)nc(Cl)c1Cl`, under setting [5], the T/C was 91, 95 [2 of 3 alive], 100, 108 % of control. Besides, the survivor count is 0 of 3 and 2 of 6 under setting [6]; 0 of 3 and 1 of 6 (T/C endpoint: mean survival time, dose: 400.0 mg/kg/injection, schedule: Q01DX009 (ip), vehicle: Klucel (hydroxypropylcellulose) (HPC)).

Consider `NC(=S)NN=C1CCSCC1`, for which the survivor count by setting is: (T/C endpoint: mean survival time, dose: 65.0 mg/kg/injection, schedule: Q01DX Z (ip), vehicle: methylcellulose (MC)) 0 of 7; (T/C endpoint: mean survival time, dose: 108.0 mg/kg/injection, schedule: Q01DX Z (ip), vehicle: methylcellulose (MC)) 0 of 7.

Regarding `Cc1ccc(S(=O)(=O)/C=C(/I)C#N)cc1`, the survivor count was 0 of 6 (T/C endpoint: mean survival time, dose: 100.0 mg/kg/injection, schedule: Q01DX001 (ip), vehicle: saline); 0 of 6 (T/C endpoint: mean survival time, dose: 200.0 mg/kg/injection, schedule: Q01DX001 (ip), vehicle: saline); 0 of 6 under setting [7].

Regarding `Cc1cc(NS(=O)(=O)c2ccc(N=Nc3c(N)[nH]c(=S)[nH]c3=O)cc2)nc(C)n1`, the survivor count under setting [7] is on record as 2 of 6.

With `O=C(O)C1C2C=CC(C2)C1(C(=O)O)c1ccccc1` (centres undefined), the survivor count under setting [8] is recorded as 2 of 6 and the survivor count (T/C endpoint: mean survival time, dose: 400.0 mg/kg/injection, schedule: Q04DX003 (ip), vehicle: carboxymethylcellulose (CMC)) is listed as 1 of 6.

In the case of `CC(C)N(CCSc1ncnc2nc[nH]c12)C(C)C`, the survivor count is reported as 1 of 6 under setting [9] and 0 of 6 under setting [10].

Take `O=C1OC(C(O)CO)C(O)=C1O` (centres undefined): the survivor count by setting is: (T/C endpoint: mean survival time, dose: 16.0 mg/kg/injection, schedule: Q01DX009 (ip), vehicle: saline) 10 of 10; (T/C endpoint: mean survival time, dose: 32.0 mg/kg/injection, schedule: Q01DX009 (ip), vehicle: saline) 10 of 10; (T/C endpoint: mean survival time, dose: 400.0 mg/kg/injection, schedule: Q03HX024 (ip), vehicle: saline) 6 of 6; (T/C endpoint: mean survival time, dose: 600.0 mg/kg/injection, schedule: Q03HX024 (ip), vehicle: saline) 2 of 6; (T/C endpoint: mean survival time, dose: 800.0 mg/kg/injection, schedule: Q01DX009 (ip), vehicle: saline) 1 of 6; (T/C endpoint: mean survival time, dose: 1200.0 mg/kg/injection, schedule: Q01DX009 (ip), vehicle: saline) 1 of 6. Besides, the survivor count is 1 of 6 (T/C endpoint: mean survival time, dose: 1600.0 mg/kg/injection, schedule: Q01DX005 (iv), vehicle: saline); 0 of 6 and 2 of 6 (T/C endpoint: mean survival time, dose: 1600.0 mg/kg/injection, schedule: Q01DX009 (ip), vehicle: saline); 4 of 6 (T/C endpoint: median survival time, dose: 2000.0 mg/kg/injection, schedule: Q01DX001 (ip), vehicle: water); 2 of 6 (T/C endpoint: median survival time, dose: 3000.0 mg/kg/injection, schedule: Q01DX001 (ip), vehicle: water); 5 of 8 (T/C endpoint: median survival time, dose: 4000.0 mg/kg/injection, schedule: Q01DX001 (oral), vehicle: water).

With `Cc1c([N+](=O)[O-])cc(C(C)(C)C)c(OC(=O)Nc2ccc(Cl)cc2)c1[N+](=O)[O-]`, the survivor count under setting [11] is 0 of 6.

For `O=S(=O)(O)c1ccc(N=Nc2ccc(O)cc2)cc1`, the survivor count reads like this: under setting [12], 2 of 6; under setting [11], 4 of 6; under setting [3], 0 of 6.

Turning to `O=C(Nc1ccccc1)Nc1nccs1`, the survivor count under setting [11] was 1 of 6.

Turning to `O=C(NC1CCCCC1)Oc1cc(CCl)cc(CCl)c1`, the survivor count under setting [6] is listed as 3 of 3.

Turning to `O=C(CBr)c1cccc2c1Nc1ccccc1S2`, the survivor count is, setting by setting: under setting [9], 0 of 6; under setting [10], 1 of 6.

`O=C(Nc1ccc(C2=NCCN2)cc1)c1c(F)c(F)c(C(=O)Nc2ccc(C3=NCCN3)cc2)c(F)c1F`: the T/C (T/C endpoint: mean survival time, dose: 15.0 mg/kg/injection, schedule: Q01DX015 (ip), vehicle: methylcellulose (MC)) is 143 % of control. Also, the survivor count runs as follows: (T/C endpoint: mean survival time, dose: 75.0 mg/kg/injection, schedule: Q01DX015 (ip), vehicle: methylcellulose (MC)) 0 of 6; (T/C endpoint: mean survival time, dose: 150.0 mg/kg/injection, schedule: Q01DX015 (ip), vehicle: methylcellulose (MC)) 0 of 6; (T/C endpoint: mean survival time, dose: 300.0 mg/kg/injection, schedule: Q01DX015 (ip), vehicle: methylcellulose (MC)) 0 of 6.

With `O=P(NO)(Oc1ccccc1)Oc1ccccc1`, the survivor count under setting [8] is 2 of 4.

Turning to `NCCCP(c1ccccc1)c1ccccc1`, the survivor count under setting [10] is 1 of 6.

Regarding `CCCC1=C(CCC)C1C(=O)O`, under setting [11], the survivor count is recorded as 3 of 6.

Take `O=C(Nc1cccc(C2=NCCN2)c1)c1ccc(-c2ccc(C(=O)Nc3cccc(C4=NCCN4)c3)cc2)cc1`: the T/C was 125 % of control [5 of 6 alive] (T/C endpoint: mean survival time, dose: 150.0 mg/kg/injection, schedule: Q01DX Z (ip), vehicle: methylcellulose (MC)) and 129 % of control (T/C endpoint: mean survival time, dose: 200.0 mg/kg/injection, schedule: Q01DX Z (ip), vehicle: carboxymethylcellulose (CMC)).

Consider `Cc1n(CCBr)c([N+](=O)[O-])c[n+]1C1N=C(c2ccccc2Cl)c2cc(Cl)ccc2NC1=O` (centres undefined), for which the survivor count under setting [5] was 3 of 3.

On to `O=C(/C(=C/c1cccc(Cl)c1)c1ccccc1)c1ccc(O)cc1`, for which the survivor count under setting [8] is 2 of 4.

Turning to `CN1CCC(OC(=O)N(c2ccccc2)c2ccccc2)CC1`, the survivor count under setting [4] is reported as 0 of 6.

As to `O=C1C(Cl)=C(Nc2ccc3cn[nH]c3c2)C(=O)c2ccccc21`, under setting [8], the survivor count is listed as 1 of 4.

As to `N#CC1=C(N)CCCC1`, the survivor count is, setting by setting: under setting [12], 0 of 6; under setting [3], 0 of 6.

With `Cc1cc(N)c(C)c(C)c1O`, the survivor count under setting [12] is 1 of 6 and the survivor count under setting [3] was 0 of 6.

Turning to `Cc1ccc(NC(=O)NCCCCCCNC(=O)Nc2ccc(C)c(Cl)c2)cc1Cl`, the survivor count is on record as 6 of 6 under setting [1] and 5 of 6 (T/C endpoint: mean survival time, dose: 400.0 mg/kg/injection, schedule: Q01DX009 (ip), vehicle: saline with Tween-80).

As to `N/N=C1\CC(=O)NC(=O)N1`, the survivor count under setting [10] is on record as 1 of 6.

Turning to `O=S(=O)(O)c1ccc(/C2=c3\cc/c([n-]3)=C(\c3ccc(S(=O)(=O)O)cc3)c3ccc([n-]3)/C(c3ccc(S(=O)(=O)O)cc3)=c3/cc/c([n-]3)=C(\c3ccc(S(=O)(=O)O)cc3)c3ccc2[n-]3)cc1.[Co]`, the survivor count (T/C endpoint: mean survival time, dose: 200.0 mg/kg/injection, schedule: Q01DX009 (ip), vehicle: saline) is recorded as 6 of 6.

`CO[C@]12[C@@H](COC(=O)NCCO)C3=C(C(=O)C(C)=C(N)C3=O)N1C[C@@H]1[C@H]2N1C` (some centres undefined): the T/C under setting [9] is 128 % of control and the T/C under setting [10] was 130 % of control.

With `CCOC(=O)OC1CC/C(=N\NC(N)=S)C1` (centres undefined), the survivor count by setting is: (T/C endpoint: mean survival time, dose: 250.0 mg/kg/injection, schedule: Q01DX Z (ip), vehicle: methylcellulose (MC)) 6 of 6; (T/C endpoint: mean survival time, dose: 500.0 mg/kg/injection, schedule: Q01DX Z (ip), vehicle: methylcellulose (MC)) 6 of 6; (T/C endpoint: mean survival time, dose: 750.0 mg/kg/injection, schedule: Q01DX Z (ip), vehicle: methylcellulose (MC)) 6 of 6.
